# Data source: PubChem BioAssay AID1508588 (Peter MacCallum Cancer Centre, 2020)
# Aim: 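Which gene losses make BRAF-mutant melanoma cells more responsive to vemurafenib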 (primary screen)
# Cells: human WM266.4 melanoma cells (BRAF V600 mutant)
# Reagents: siRNA pool against human genes, 40 nM
# Duration: 96 h from transfection to read-out
# Treatment: vemurafenib 300 nM (about IC25), added 48 h after transfection, for 48 h; comparison arm got DMSO vehicle only
# Detection: 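Ratios to non-targeting siRNA for cell gain, counted as DAPI nuclei after minus before drug and averaged over two replicates, and for absorbance-read medium lactate per cell; both binned into fold-change classes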
# Direction: cell gain with vemurafenib: higher = more cell gain than with non-targeting siRNA; lactate per cell with vemurafenib: higher = more lactate made per cell
# Rule for the call: 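a knock-down counts as enhancing when its fold-change classes with vehicle and with vemurafenib, taken together, show a stronger drug effect on cell gain or lactate per cell; exact class pairs not stated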
# Meaning of the calls: active = enhances vemurafenib effect; inactive = no enhancement seen
# The deposit covers about 18,000 reagents; this is a random part of them. Of all reagents, 790 (4.4%) are marked active. 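Calls rest on a combination of fold-change classes in drug and vehicle arms, not all shown here.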 Unmarked entries are inactive.
target,cell gain with vemurafenib,lactate per cell with vemurafenib
TMOD4,0.77,0.96
MRC2,0.82,0.82
RBSN,-0.08,2.04
LRCH1,0.78,0.54
CFAP184,0.4,0.82
BCL2A1,0.83,0.83
KCNMA1,0.44,0.4
GATA3,0.12,2
ZNF23,0.72,1.02
OR5J2,0.74,0.82
OAF,0.24,0.84
ACAT1,0.55,1.19
CARD8,0.6,0.74
SLC45A3,0.48,1.23
C16orf78,0.68,0.82
RHOA,0.26,0.88
RAB5A,0.76,0.49
SLCO1C1,1.03,0.64
EPHA4,0.41,0.96
CYP2C8,0.36,1.09
STIP1,0.91,1.29
SCUBE2,0.78,0.41
GREM2,0.82,0.4
ERAP1,0.49,0.96
CMTM8,0.41 (active),0.48
FYB1,0.91,0.63
SLC39A2,0.24,-0.08
SRARP,0.63,1.1
SKOR1,0.95,0.86
PITX3,1.29,0.78
ARMC3,1.08,0.83
TMX1,0.75,0.84
C14orf184 (retired record),0.63,1.62
ZNF415,0.55,0.59
